Some entries share one result that the patent states for a list of compounds. For at least one compound, name, drawing or mass did not settle the structure.
Biological target: T1, human cannabinoid CB2 receptor (Homo sapiens, UniProt P34972)
T1 construct: expressed in transfected cells; host or cells: Saccharomyces cerevisiae strain MMY23
Experiment: Cannabinoid CB2 receptor agonist activity, yeast reporter assay (FDGlu fluorescence)
Assay type: cell-based
Details: for efficacy value (Emax) at the cloned human cannabinoid CB2 receptor: Emax relative to HU210; for EC50: yeast (S. cerevisiae) expressing human CB2, agonist, read-out: EC50 at the cloned human cannabinoid CB2 receptor
Description: The cannabinoid CB2 receptor agonist activity of the compounds of formula (I) was determined in accordance with the following experimental method.
Yeast (Saccharomyces cerevisiae) cells expressing the human cannabinoid CB2 receptor were generated by integration of an expression cassette into the ura3 chromosomal locus of yeast strain MMY23. This cassette consisted of DNA sequence encoding the human CB2 receptor flanked by the yeast GPD promoter to the 5′ end of CB2 and a yeast transcriptional terminator sequence to the 3′ end of CB2. MMY23 expresses a yeast/mammalian chimeric G-protein alpha subunit in which the C-terminal 5 amino acids of Gpa1 are replaced with the C-terminal 5 amino acids of human Gαi3 (as described in Brown et al. (2000), Yeast 16:11-22). Cells were grown at 30° C. in liquid Synthetic Complete (SC) yeast media (Guthrie and Fink (1991), Methods in Enzymology, Vol. 194) lacking uracil, tryptophan, adenine and leucine to late logarithmic phase (approximately 6 OD600/ml).
Agonists were prepared as 10 mM stocks in DMSO. […] Agonist solutions in DMSO (1% final assay volume) were transferred into black, clear bottom, microtitre plates from NUNC (96- or 384-well). […] This mixture (50 ul per well for 384-well plates, 200 ul per well for 96-well plates) was added to agonist in the assay plates (Multidrop 384, Labsystems). After incubation at 30° C. for 24 hours, fluorescence resulting from degradation of FDGlu to fluorescein due to exoglucanase, an endogenous yeast enzyme produced during agonist-stimulated cell growth, was determined using a Spectrofluor microtitre plate reader (Tecan; excitation wavelength: 485 nm; emission wavelength: 535 nm). Fluorescence was plotted against compound concentration and iteratively curve fitted using a four parameter fit to generate a concentration effect value.
where Max[compound X] and Min[compound X] are the fitted maximum and minimum respectively from the concentration effect curve for compound X, and Max[HU210] and Min[HU210] are the fitted maximum and minimum respectively from the concentration effect curve for (6aR,10aR)-3-(1,1′-Dimethylheptyl)-6a,7,10,10a-tetrahydro-1-hydroxy-6,6-dimethyl-6H-dibenzo[b,d]pyran-9-methanol (HU210; available from Tocris). Equieffective molar ratio (EMR) values were calculated from the equation EMR=EC50 [compound X]/EC50 [HU210]
Where EC50 [compound X] is the EC50 of compound X and EC50 [HU210] is the EC50 of HU210.

By UniProt entry, the sequences of proteins in these tests, tags left out.
UniProt P34972, whole entry: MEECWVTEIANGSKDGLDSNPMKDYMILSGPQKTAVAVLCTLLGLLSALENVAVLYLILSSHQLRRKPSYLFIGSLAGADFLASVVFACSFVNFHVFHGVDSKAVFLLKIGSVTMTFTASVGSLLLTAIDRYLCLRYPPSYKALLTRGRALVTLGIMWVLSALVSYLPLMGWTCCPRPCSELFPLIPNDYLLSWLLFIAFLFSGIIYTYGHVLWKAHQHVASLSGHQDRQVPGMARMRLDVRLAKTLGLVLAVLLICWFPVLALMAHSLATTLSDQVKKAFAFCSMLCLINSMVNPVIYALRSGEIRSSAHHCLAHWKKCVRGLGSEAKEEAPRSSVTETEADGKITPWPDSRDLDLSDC

| Structure (SMILES) | efficacy value (Emax) at the cloned human cannabinoid CB2 receptor [%] | EC50 [µM] |
| --- | --- | --- |
| CC(C)c1cc(Nc2cccc(Cl)c2)ncc1C(=O)N1CCN(S(C)(=O)=O)CC1 [Example 61] | > 50 | < 1 |
| O=C(NCC1CC1)c1cnc(Nc2ccccc2)cc1C(F)(F)F [Example 174, N-Cyclopropylmethyl-6-phenylamino-4-trifluoromethyl-nicotinamide] | > 50 | < 1 |
| Cc1cccc(Nc2cc(C(C)C)c(C(=O)NCC3CCOCC3)cn2)c1 [Example 42, 4-lsopropyl-N-(tetrahydro-pyran-4-ylmethyl)-6-m-tolylamino-nicotinamide] | > 50 |  |
| CC(C)c1cc(Nc2cccc(Cl)c2)ncc1C(=O)NCC(C)(C)C [Example 56, 6-(3-Chloro-phenylamino)-N-(2,2-dimethyl-propyl)-4-isopropyl-nicotinamide] | > 50 |  |
| CC(C)c1cc(Nc2cccc(Cl)c2C#N)ncc1C(=O)NCC1CCOCC1 [Example 304, 6-(3-Chloro-2-cyano-phenylamino)-4-isopropyl-N-(tetrahydropyran-4-ylmethyl)-nicotinamide] | > 50 | < 1 |
| CC(C)c1cc(Nc2cccc(C#N)c2)ncc1C(=O)NCC1CCOCC1 [Example 43, 6-(3-Cyano-phenylamino)-4-isopropyl-N-(tetrahydro-pyran-4-ylmethyl)-nicotinamide] | > 50 |  |
| CC(C)c1cc(Nc2cccc(F)c2)ncc1C(=O)N1CCOCC1 [Example 40, 1-[6-(3-Fluoro-phenylamino)-4-isopropyl-pyridin-3-yl]-1-morpholin-4-yl-methanone] | > 50 | < 1 |
| CC(C)c1cc(Nc2cccc(Cl)c2)ncc1C(=O)NC[C@H]1CCCO1 [Example 59, 6-(3-Chloro-phenylamino)-4-isopropyl-N-[(R)-1-(tetrahydro-furan-2-yl)methyl]-nicotinamide] | > 50 | < 1 |
| O=C(NCC1CCOCC1)c1cnc(Nc2ccccc2)cc1C(F)(F)F [Example 173, N-(Tetrahydropyran-4-ylmethyl)-6-phenylamino-4-trifluoromethyl-nicotinamide] | > 50 | < 1 |
| CC(=O)N[C@@H]1CCN(C(=O)c2cnc(Nc3cccc(Cl)c3)cc2C(C)C)C1 [Example 60, N-((R)-1-{1-[6-(3-Chloro-phenylamino)-4-isopropyl-pyridin-3-yl]-methanoyl}-pyrrolidin-3-yl)-acetamide] | > 50 | < 1 |
| CC(C)c1cc(Nc2ccc(C#N)cc2)ncc1C(=O)NCC1CCOCC1 [Example 288, 6-(4-Cyano-phenylamino)-4-isopropyl-N-(tetrahydro-pyran-4-ylmethyl)-nicotinamide] | > 50 | < 1 |

The remaining lines, values ahead:

| efficacy value (Emax) at the cloned human cannabinoid CB2 receptor [%] | EC50 [µM] | Structure (SMILES) |
| --- | --- | --- |
| > 50 | < 1 | Cc1ccc(Nc2cc(C(C)C)c(C(=O)NCC3CCOCC3)cn2)cc1Br [Example 102, 6-(3-Bromo-4-methyl-phenylamino)-4-isopropyl-N-(tetrahydro-pyran-4-ylmethyl)-nicotinamide] |
| > 50 | < 1 | Cc1ccc(Cl)c(Nc2cc(C(C)C)c(C(=O)NCC3CCOCC3)cn2)c1 [Example 281, 6-(2-Chloro-5-methyl-phenylamino)-4-isopropyl-N-(tetrahydro-pyran-4-ylmethyl)-nicotinamide] |
| > 50 | < 1 | CC(C)c1cc(Nc2ccc(OC(F)(F)F)cc2Cl)ncc1C(=O)NCC1CCOCC1 [Example 302, 6-(2-Chloro-4-trifluoromethoxy-phenylamino)-4-isopropyl-N-(tetrahydropyran-4-ylmethyl)-nicotinamide] |
| > 50 | < 1 | CC(C)c1cc(Nc2ccc(C(F)(F)F)cc2Cl)ncc1C(=O)NCC1CCCC1 [Example 298, 6-(2-Chloro-4-trifluoromethyl-phenylamino)-N-cyclopentylmethyl-4-isopropyl-nicotinamide] |
| > 50 | < 1 | Cc1cc(Nc2cc(C(C)C)c(C(=O)NCC3CCOCC3)cn2)ccc1F [Example 98, 6-(4-fluoro-3-methyl-phenylamino)-4-isopropyl-N-(tetrahydro-pyran-4-ylmethyl)-nicotinamide] |
| > 50 | < 1 | Cc1ccc(Nc2cc(C(C)C)c(C(=O)NCC3CCOCC3)cn2)cc1F [Example 100, 6-(3-Fluoro-4-methyl-phenylamino)-4-isopropyl-N-(tetrahydro-pyran-4-ylmethyl)-nicotinamide] |
| > 50 | < 1 | CC(C)c1cc(Nc2ccc(Cl)c(C(F)(F)F)c2)ncc1C(=O)NCC1CCOCC1 [Example 300, 6-(4-Chloro-3-trifluoromethyl-phenylamino)-4-isopropyl-N-(tetrahydropyran-4-ylmethyl)-nicotinamide] |
| > 50 | < 1 | Cc1ccc(Cl)cc1Nc1cc(C(C)C)c(C(=O)NCC2CCOCC2)cn1 [Example 99, 6-(5-Chloro-2-methyl-phenylamino)-4-isopropyl-N-(tetrahydro-pyran-4-ylmethyl)-nicotinamide] |
| > 50 | < 1 | CC(C)c1cc(Nc2ccc(F)c(F)c2)ncc1C(=O)NCC1CCOCC1 [Example 299, 6-(3,4-Difluoro-phenylamino)-4-isopropyl-N-(tetrahydropyran-4-ylmethyl)-nicotinamide] |
| > 50 | < 1 | Cc1c(Br)cccc1Nc1cc(C(C)C)c(C(=O)NCC2CCOCC2)cn1 [Example 284, 6-(3-Bromo-2-methyl-phenylamino)-4-isopropyl-N-(tetrahydro-pyran-4-ylmethyl)-nicotinamide] |
| > 50 | < 1 | Cc1c(F)cccc1Nc1cc(C(C)C)c(C(=O)NCC2CCOCC2)cn1 [Example 286, 6-(3-Fluoro-2-methyl-phenylamino)-4-isopropyl-N-(tetrahydro-pyran-4-ylmethyl)-nicotinamide] |
| > 50 | < 1 | CC(C)c1cc(Nc2ccc(C(F)(F)F)cc2F)ncc1C(=O)NCC1CCC1 [Example 292, N-Cyclobutyl-methyl-6-(2-fluoro-4-trifluoromethyl-phenylamino)-4-isopropyl-nicotinamide] |
| > 50 | < 1 | CC(C)c1cc(Nc2ccc(C(F)(F)F)c(F)c2)ncc1C(=O)NCC1CCOCC1 [Example 95, 6-(3-Fluoro-4-trifluoromethyl-phenylamino)-4-isopropyl-N-(tetrahydro-pyran-4-ylmethyl)-nicotinamide] |
| > 50 | < 1 | CC(C)c1cc(Nc2cc(Br)cc(C(F)(F)F)c2)ncc1C(=O)NCC1CCOCC1 [Example 287, 6-(3-Bromo-5-trifluoromethyl-phenylamino)-4-isopropyl-N-(tetrahydro-pyran-4-ylmethyl)-nicotinamide] |
| > 50 | < 1 | CC(C)c1cc(Nc2ccc(Br)cc2F)ncc1C(=O)NCC1CCCC1 [Example 290, 6-(4-bromo-2-fluoro-phenylamino)-N-cyclopentylmethyl-4-isopropyl-nicotinamide] |
| > 50 | < 1 | Cc1cc(OC(F)(F)F)ccc1Nc1cc(C(C)C)c(C(=O)NCC2CCOCC2)cn1 [Example 285, 4-Isopropyl-6-(2-methyl-4-trifluoromethoxy-phenylamino)-N-(tetrahydro-pyran-4-ylmethyl)-nicotinamide] |
| > 50 | < 1 | O=C(NCC1CCC1)c1cnc(Nc2cc(Cl)ccc2O)cc1C(F)(F)F [Example 177, N-Cyclobutylmethyl-6-(2-hydroxy-5-chloro-phenylamino)-4-trifluoromethyl-nicotmamide] |
